Earlier results as cited in PMC11859423, “Fluorescent Probes to Image the KCa3.1 Channel in Tumor Cells” (Pharmaceutics, 2025).

Tested on: KCa3.1 channels
Conditions: read-out: IC50 to block KCa3.1 channels; cited from earlier work

Compound: Clc1ccccc1C(c1ccccc1)(c1ccccc1)n1ccnc1 [clotrimazole]
- IC50: 70 to 250 nM
